Data on 1 molecule can be found in patent publication US20200405867A1, “ORAL DOSAGE FORMS” (Sunovion Pharmaceuticals Inc., priority 2018, published 2020).

This data set can be described thus: human taste study of dasotraline capsule contents, Flavor Profile Method (adult panel). Type of data set: in vivo.

Turning to `N[C@@H]1CC[C@@H](c2ccc(Cl)c(Cl)c2)c2ccccc21` [dasotraline, (1R,4S)-4-(3,4-dichlorophenyl)-1,2,3,4-tetrahydronaphthalen-1-amine], the “tongue sting and metallic aromatics, time lingered” value (2 mg capsule contents) worked out at 3 min. Moreover, the “bitter basic taste, persistence in aftertaste” value (2 mg capsule contents, 10 s in mouth) is on record as “lingered at patient-perceptible levels for the first five minutes of aftertaste”. For the same molecule, the “flavor profile compared with 2 mg capsule” value (4 mg capsule contents) is “more intense and lingered longer at patient-perceptible levels”. For the same molecule, the “flavor profile compared with 4 mg capsule” value (6 mg capsule and 8 mg capsule contents) is listed as “persisted at patient-perceptible intensities for longer periods of time”. The “natural taste / paresthesic feeling in the tongue” value (in vivo) is given as “naturally bitter taste”.
